Laboratory results: the supplement of paper PMC9744312
Counter-ions that a name gives are not always drawn. Some of the results follow. Single values of this set are uncertain.

tested on: Peyronie's disease tunica albuginea primary fibroblasts; assay: inhibition of TGF-beta1-induced alpha-SMA expression (myofibroblast transformation), relative to TGF-beta1-only and untreated controls; higher = stronger inhibition of myofibroblast transformation; details: 10 µM; TGF-beta1 10 ng/mL; 72 h

Row | SMILES | inhibition of TGF-beta1-induced alpha-SMA expression [%]
1 | COc1nc(C)cnc1NS(=O)(=O)c1cccnc1-c1ccc(-c2nnco2)cc1 [Zibotentan (ZD4054)] | -12.7
2 | C/C(O)=C(\C#N)C(=O)Nc1ccc(C(F)(F)F)cc1 [Teriflunomide] | 26.8
3 | C[C@@H]1O[C@@H](OC[C@H]2O[C@@H](Oc3c(-c4ccc(O)c(O)c4)oc4cc(O)cc(O)c4c3=O)[C@H](O)[C@@H](O)[C@@H]2O)[C@H](O)[C@H](O)[C@H]1O [Rutin] | 4.22
4 | CCCC(=O)Nc1ccc(OCC(O)CNC(C)C)c(C(C)=O)c1 (stereo unspecified) [Acebutolol HCl] | -6.07
5 | CO/N=C(\C(=O)N[C@@H]1C(=O)N2C(C(=O)O)=C(CSC(=O)c3ccco3)CS[C@H]12)c1csc(N)n1 [Ceftiofur HCl] | 7.88
6 | CO/N=C(\C(=O)N[C@@H]1C(=O)N2C(C(=O)O)=C(CSC(=O)c3ccco3)CS[C@H]12)c1csc(N)n1 [Ceftiofur] | -1.57
7 | CN1[C@@H]2CC[C@H]1C[C@@H](OC(c1ccccc1)c1ccccc1)C2 [Benztropine mesylate] | 47.9
8 | CO[C@H]1O[C@H](COS(=O)(=O)O)[C@@H](O[C@@H]2O[C@@H](C(=O)O)[C@@H](O[C@H]3O[C@H](COS(=O)(=O)O)[C@@H](O[C@@H]4O[C@H](C(=O)O)[C@@H](O[C@H]5O[C@H](COS(=O)(=O)O)[C@@H](O)[C@H](O)[C@H]5NS(=O)(=O)O)[C@H](O)[C@H]4O)[C@H](OS(=O)(=O)O)[C@H]3NS(=O)(=O)O)[C@H](O)[C@H]2OS(=O)(=O)O)[C@H](O)[C@H]1NS(=O)(=O)O [Fondaparinux Sodium] | 32.3
9 | O=C(Nc1ccccc1)OCC(CN1CCCCC1)OC(=O)Nc1ccccc1 (stereo unspecified) [Diperodon HCl] | 45
10 | COc1cc2ncnc(Nc3ccc(F)c(Cl)c3)c2cc1NC(=O)/C=C/CN1CCCCC1 | > 100
11 | CCCCC1C(=O)N(c2ccccc2)N(c2ccccc2)C1=O [Phenylbutazone] | 7.48
12 | CCCc1nc2c(C)cc(-c3nc4ccccc4n3C)cc2n1Cc1ccc(-c2ccccc2C(=O)O)cc1 [Telmisartan] | 8.03
13 | CCCCOC(=O)c1ccc(O)cc1 [Butylparaben] | -42.7
14 | COCCCOc1cc(C[C@@H](C[C@H](N)[C@@H](O)C[C@H](C(=O)NCC(C)(C)C(N)=O)C(C)C)C(C)C)ccc1OC [Aliskiren Hemifumarate] | -2.38
15 | CCCCC[C@](C)(O)/C=C/[C@@H]1[C@@H](C/C=C\CCCC(=O)O)[C@@H](O)C[C@H]1O [Carboprost] | 55.8
16 | CC1=CC(=O)c2ccccc2C1=O [Menadione] | 63

From entry 13 to 14, copied from above:
Row | SMILES | inhibition of TGF-beta1-induced alpha-SMA expression [%]
13 | CCCCOC(=O)c1ccc(O)cc1 [Butylparaben] | -42.7
14 | COCCCOc1cc(C[C@@H](C[C@H](N)[C@@H](O)C[C@H](C(=O)NCC(C)(C)C(N)=O)C(C)C)C(C)C)ccc1OC [Aliskiren Hemifumarate] | -2.38
